# PubChem BioAssay AID743121, NCATS, 2013
# Screen: 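Knock-downs that sensitise breast cancer cells to camptothecin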 (primary screen)
# Cells: MDA-MB-231 cells, a human breast cancer line
# Reagent: single siRNA against human genes, 20 nM siRNA (0.8 pmol per well)
# Duration: 120 h (drug added 48 h after transfection, read 72 h later)
# Challenge: camptothecin 20 nM (about EC30) for 72 h; vehicle 0.1% DMSO in parallel plates
# Read-out: 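CellTiter-Glo ATP signal, scaled to control siRNA as percent viability; sensitisation given as log2 of untreated divided by camptothecin-treated viability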
# Direction: log2 vehicle/camptothecin viability: higher = stronger sensitisation to camptothecin; viability with camptothecin and viability without drug: higher = more viable cells
# Rule for the call: 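Active genes have an RSA gene-level p-value below 0.001, computed from the ratios of their separate siRNAs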
# Here is one part, drawn at random, of about 26,000 reagents. 167 of all reagents (0.63%) were called active. 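Calls are per gene from RSA p-values that are not deposited; an individual active-marked siRNA can sensitise only weakly.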 The numbers tell different reagents against one gene apart.
Gene,siRNA no.,log2 vehicle/camptothecin viability,viability with camptothecin (% of control),viability without drug (% of control),Outcome
NUCKS1,1,-0.226,90.8,77.7,inactive
NUCKS1,2,-0.265,75.4,62.7,inactive
NUCKS1,3,-0.191,52.1,45.6,inactive
NUCKS1,4,-0.0622,91.4,87.5,inactive
GPR152,1,-0.212,71.3,61.6,inactive
GPR152,2,0.181,63.4,71.8,inactive
GPR152,3,-0.473,37.6,27.1,inactive
GPR152,4,-0.166,53.7,47.8,inactive
FZD10,1,-0.108,102,95.1,inactive
FZD10,2,-0.424,40.6,30.3,inactive
FZD10,3,-0.00209,106,106,inactive
FZD10,4,-0.372,21.2,16.4,inactive
ACACA,1,-0.274,71.3,59,inactive
ACACA,2,0.184,34.5,39.2,inactive
ACACA,3,-0.176,93.2,82.5,inactive
ACACA,4,-0.141,67.7,61.4,inactive
USP21,1,0.0481,112,116,inactive
USP21,2,-0.0641,88.8,85,inactive
USP21,3,-0.244,49.4,41.7,inactive
USP21,4,0.0389,90.4,92.9,inactive

Laid out differently: results already given
| Gene | siRNA no. | log2 vehicle/camptothecin viability | viability with camptothecin (% of control) | viability without drug (% of control) | Outcome |
| --- | --- | --- | --- | --- | --- |
| FZD10 | 2 | -0.424 | 40.6 | 30.3 | inactive |
| FZD10 | 3 | -0.00209 | 106 | 106 | inactive |
| FZD10 | 4 | -0.372 | 21.2 | 16.4 | inactive |
| ACACA | 1 | -0.274 | 71.3 | 59 | inactive |
| ACACA | 2 | 0.184 | 34.5 | 39.2 | inactive |
| ACACA | 3 | -0.176 | 93.2 | 82.5 | inactive |

The results go on:
Gene,siRNA no.,log2 vehicle/camptothecin viability,viability with camptothecin (% of control),viability without drug (% of control),Outcome
BORA,1,-0.0697,63,60,inactive
BORA,2,0.0339,81,83,inactive
BORA,3,-0.523,83,57.8,inactive
HDAC5,1,-0.291,94.2,77,inactive
HDAC5,2,0.0904,60.8,64.7,inactive
HDAC5,3,-0.133,91.7,83.7,inactive
HDAC5,4,0.0549,47,48.8,inactive
CHMP1A,1,0.277,73.9,89.6,inactive
CHMP1A,2,0.0435,74.6,76.9,inactive
CHMP1A,3,0.154,66.2,73.7,inactive
CHMP1A,4,-0.332,98.4,78.2,inactive
CHMP1A,5,-0.333,107,84.7,inactive
CHMP1A,6,0.118,72.7,78.9,inactive
CHMP1A,7,-0.207,83.1,72,inactive
CHMP1A,8,-0.366,97.4,75.6,inactive
EPS15,1,0.234,53.3,62.7,inactive
EPS15,2,-0.382,122,93.4,inactive
EPS15,3,-0.0657,89.3,85.3,inactive
EPS15,4,-0.225,109,93.4,inactive
TKFC,1,-0.00684,85,84.6,inactive
TKFC,2,0.144,90.8,100,inactive
TKFC,3,-0.199,81.4,70.9,inactive
PMPCB,1,-0.0621,89.3,85.6,inactive
PMPCB,2,-0.0808,63.1,59.7,inactive
PMPCB,3,-0.471,42.7,30.8,inactive
UCN,1,-0.228,111,95,inactive
UCN,2,-0.139,110,99.8,inactive
UCN,3,-0.0387,46.1,44.9,inactive
UCN,4,-0.382,38.3,29.4,inactive
